Measurements reported in PubChem BioAssay AID1259405 (NCATS, 2018).

Assay: 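Knock-downs that lift recombinant protein yield in hamster ovary cells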 (primary screen)
Cells: Chinese hamster CHO-K1 ovary cells with stable secreted eGFP expression
Reagents: single siRNA against mouse genes, 0.8 pmol siRNA per well (2 µl of 400 nM stock)
Duration: 3 days
Detection: 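Per-well intracellular GFP measured by laser scanning cytometry, plus viability from ATP luminescence, each relative to plate median of non-targeting control wells, in %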
Scale: GFP, % of control: higher = more GFP per well, higher productivity
Hit rule: 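Called active when intracellular GFP, relative to negative control, is at or above 120%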
In all, the deposit lists about 50,000 reagents; below is a part drawn at random. About 4,000 of them (8%) count as active. 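Mouse siRNA library applied to hamster cells; one well for each siRNA.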 The numbers tell different reagents against one gene apart. Further read-outs or replicates are left out here.

GFP, % of control, by target gene and reagent
Txndc9 (GeneID 98258): #1 69.4 inactive; #2 29.9 inactive; #3 95.2 inactive
Tia1 (GeneID 21841): #1 71.2 inactive; #2 85.9 inactive; #3 130 active
Ptgdr (GeneID 19214): #1 117 inactive; #2 50.6 inactive; #3 94.6 inactive
Fbxw7 (GeneID 50754): #1 72.3 inactive; #2 32.9 inactive; #3 90.5 inactive
Trdmt1 (GeneID 13434): #1 71.2 inactive; #2 109 inactive; #3 25.7 inactive
Zfp799 (GeneID 240064): #1 51.4 inactive; #2 87.2 inactive
Or6b1 (GeneID 259067): #1 145 active; #2 100 inactive; #3 89.1 inactive
Sppl2a (GeneID 66552): #1 21.7 inactive; #2 91.2 inactive; #3 49.6 inactive
Rai1 (GeneID 19377): #1 82.7 inactive; #2 150 active; #3 29.5 inactive
Prss48 (GeneID 368202): #1 73.7 inactive; #2 97.2 inactive; #3 82.1 inactive
Smarcd2 (GeneID 83796): #1 135 active; #2 81.9 inactive
Serpine1 (GeneID 18787): #1 68.7 inactive; #2 59.2 inactive; #3 96.7 inactive
Rarb (GeneID 218772): #1 62.5 inactive; #2 80.4 inactive; #3 63.2 inactive
Cyp2c55 (GeneID 72082): #1 94.7 inactive; #2 82 inactive; #3 109 inactive
Hps3 (GeneID 12807): #1 46.1 inactive; #2 64.1 inactive; #3 60.5 inactive
Il15ra (GeneID 16169): #1 102 inactive; #2 30.6 inactive; #3 104 inactive
Ube2q1 (GeneID 70093): #1 124 active; #2 72.7 inactive; #3 107 inactive
Epor (GeneID 13857): #1 67.4 inactive; #2 49.5 inactive; #3 52.9 inactive
Hdac6 (GeneID 15185): #1 66.7 inactive; #2 72.4 inactive
Or5an1b (GeneID 258117): #1 70.1 inactive; #2 71 inactive; #3 60.3 inactive
Rmdn1 (GeneID 66302): #1 69.2 inactive; #2 7.91 inactive; #3 68.8 inactive
Tspyl3 (GeneID 241732): #1 108 inactive; #2 83.8 inactive; #3 91.8 inactive
Drd1 (GeneID 13488): #1 132 active; #2 53.3 inactive; #3 150 active
Dhrs4 (GeneID 28200): #1 125 active; #2 74.3 inactive; #3 59.9 inactive
Hspa9 (GeneID 15526): #1 98.9 inactive; #2 59.8 inactive; #3 79.4 inactive
Rhno1 (GeneID 72440): #1 30.2 inactive; #2 115 inactive; #3 95.4 inactive
Ankrd39 (GeneID 109346): #1 40.1 inactive; #2 81 inactive; #3 101 inactive
B4galt2 (GeneID 53418): #1 56.2 inactive; #2 71 inactive; #3 75.5 inactive
Or10a2 (GeneID 259035): #1 83.7 inactive; #2 73.4 inactive; #3 97.6 inactive
